Measurements from paper PMC10183819.

T1: TFIIA-L-AID-3xFLAG (endogenously C-terminally tagged TFIIA-L) (D. melanogaster (endogenous in S2 cells)) (UniProt P52654)
T1 sequence: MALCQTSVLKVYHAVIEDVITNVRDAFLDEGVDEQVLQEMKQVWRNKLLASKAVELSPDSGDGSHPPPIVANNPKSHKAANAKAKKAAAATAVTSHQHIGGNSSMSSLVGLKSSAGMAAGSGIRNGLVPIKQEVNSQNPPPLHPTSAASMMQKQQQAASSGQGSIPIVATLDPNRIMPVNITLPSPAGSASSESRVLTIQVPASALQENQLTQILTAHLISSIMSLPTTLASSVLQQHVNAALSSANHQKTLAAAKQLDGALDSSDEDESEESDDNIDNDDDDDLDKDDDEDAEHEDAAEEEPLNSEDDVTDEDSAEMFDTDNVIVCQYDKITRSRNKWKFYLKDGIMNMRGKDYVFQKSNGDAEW

B1: RNA helicase CG8611 (protein, UniProt Q86B47 1-975)
chain: MVENISLNVTVKSSARKNQQQSPALSVKKRAQKSQDFDFQFNVDKPKVKAIVVRRRAPPSKVEPTNSSVPNTTKSPTPSVSSSKSAISTLSASPKANASNDDLMFNVSPTKPPVKSVLGDDFMLNVTTKPVVAQKAKPKITRAERLGKKQRQGKPLTKLSEEQITRALKSNKKPKNPNQLPTPGDLFRAQLEEERRQKRREEGGGDQEASADEEDAKNNSGGGSPRVKPSSAVKESKKSSDIEDSGESGEESATSDEEPDESSAQSPGQEKEPKQTAKKPPKAEETSSTNRFRTKKIGLFDQSDVEALKQLGQRAVKPVKETIFTGSKISTLGLHPHAVKNLEDLLSIRELTSVQQKTIPEVLQGKDVLVRSQTGSGKTLAYALPLVELLQKQQPRIQRKDGVLALVIVPTRELVMQTYELIQKLVKPYTWIVPGSLLGGESRKSEKARLRKGINILIGTPGRLVDHLLHTASFKLTKLQFLILDEADRLLELGYERDVKQLVEAIDKQRAECEDKELPQLQRMLLSATLTSQVQQLAGLTLKNPLYIDNSDEAASAALKSKDGYQKETIEALLEVDDGLGEYQEDVTGVLSIPENLQLSYVVVPPKLRLVALSSLLAKEVDASPKQFKAIVFMSTTEMVNFHHDMLNEALTRRVLDEEDEQEKGDSDDDGDIPLLQGLRFFKLHGSMTQTERQGVFRGFRDCASCVLLATDVVGRGIDVPDIKLVVQYTPPQTTADFVHRVGRTARAGRKGRAVLFLTPSEAQFVRHLEKKRIRIQQGDMYAYLQTLLPKDDEARTVQEAASNLQHKFQTLLEDDRELHDKSCKAFVSWMKFYSTFPKELKPIFNVRIAHMGHFAKSFALKEAPSKFAAKHAAPKAAPPTNRLTYTERDPEKIQAQKRAKRRFTTTVSGEVRQLQQRDVGAQKPGAPPPKGGFIGGGVGRSSFMKSLGKSRALNMSEFDSGLPPEGAAKRRKQA
B2: nucleolar protein Nnp1 (protein, UniProt Q9VJZ7 1-687)
chain: MVTRKKPVKRNAEAAEIQVEQEEDASQPKVAKELMVVAQEVKIIRALACNDVVERNRQIRILRKWFKARAGSSFPFNEDDFMRIWKGLYYTMWMSDKPLVQEELAEKLAQMVDSFGGNTACSLAYFSAFMRTMCQEYFGIDQWRMDKFLMLTRRMVRYLLRFLKQNNWNADLIAAFNSSMQLSVMSEQPKSRGMTMHYLDVFFEELAKAANGEITAAQVNMFLRPFVTYIATQRDAKLVAQCRTRVLYHLMYQSDLGRQYSEKYNAWKQMGFPTASIDDIEKLDSGFDEEDDEVNAEEEQPRATSLDPRAGNVDVHMPELPLNADCVLDELQTQLRTNDFNSKRRKGLRKLIQIFETYQRGEFPLGVRTMPKVEGQTLSEMVEQKVAALDKMEDEVFATGRKLKKLNKSKRKRLLQSINFEEVDEHNYDEVISKALPPELQKKVNYNAKVRSSINNAWVVEEVKEAEPKSKKAKKEEPPQQNKDDQTKVKKKSQLKPKNDQSKPKIEDQPTLKAEKEEPAKRKKLDHSKTKEEQSKPKTDEQPKPTPKVEGQSKAKPTPKTKAAGVDDDAPTNGWDAPLEDGEQDIFVPSRKLQVKQANSKLPQSTPKQPARAEFATPQTGSGKHVRIVTKSNCIYPKSDYYRQLKLSPQVPYDANRLPGKSALKPHWIPGPIHPSYKAKRLFNDTL
B3: TATA-binding protein (TBP) (protein, UniProt P20227 1-353)
chain: MDQMLSPNFSIPSIGTPLHQMEADQQIVANPVYHPPAVSQPDSLMPAPGSSSVQHQQQQQQSDASGGSGLFGHEPSLPLAHKQMQSYQPSASYQQQQQQQQLQSQAPGGGGSTPQSMMQPQTPQSMMAHMMPMSERSVGGSGAGGGGDALSNIHQTMGPSTPMTPATPGSADPGIVPQLQNIVSTVNLCCKLDLKKIALHARNAEYNPKRFAAVIMRIREPRTTALIFSSGKMVCTGAKSEDDSRLAARKYARIIQKLGFPAKFLDFKIQNMVGSCDVKFPIRLEGLVLTHCNFSSYEPELFPGLIYRMVRPRIVLLIFVSGKVVLTGAKVRQEIYDAFDKIFPILKKFKKQS

target: T1, TFIIA-L-AID-3xFLAG (endogenously C-terminally tagged TFIIA-L) (D. melanogaster (endogenous in S2 cells)); test: affinity purification with mass spectrometry; anti-FLAG M2 magnetic beads with 1 mg nuclear lysate (nucleoplasm plus sonicated chromatin fraction) of the TFIIA-L-AID-3xFLAG S2 line, overnight at 4°C, washes with 150 mM NaCl IP lysis buffer; control: parental Tir1-expressing line; three replicates; label-free quantification

Molecule | binding
B1 | binds
B2 | binds
B3 | no binding

target: T1, TFIIA-L-AID-3xFLAG (endogenously C-terminally tagged TFIIA-L) (D. melanogaster (endogenous in S2 cells)); test: as above; remark: another data set of the same source

Molecule | binding
GFZF (D. melanogaster (endogenous in S2 cells)) | binds
TFIIE (D. melanogaster (endogenous in S2 cells)) (complex) | binds
TRF2 (TBP-related factor 2) (D. melanogaster (endogenous in S2 cells)) | binds
Chromator (D. melanogaster (endogenous in S2 cells)) | binds
DREF (D. melanogaster (endogenous in S2 cells)) | binds

No constants are given. Whether binding was seen depends on the method and setting. Binding seen in cells or lysates may run through a third protein. These calls come from enrichment with a bait or labelling near it, and not all partners need be listed. For some assays here: No binding means not detected with the bait. Sequences can lack the tags named with a protein.
